According to PubChem BioAssay AID248 (DTP/NCI, 2004):
The list is a part of this screen's results and no random one: it gathers tests that were run many times, whatever their T/C, doses with no T/C, and many T/C values between a quarter and a half above the control. Other doses and runs of a compound stand elsewhere. T/C is the treated group as % of the vehicle group. Some entries give survivors of the animals treated and no T/C: the source holds a T/C of zero for them, seemingly a mark for toxic or unscored doses. Some survivor counts are full or nearly so, which does not show that the dose was tolerated: the source hardly ever lists a survival T/C far under the control, and the zero likely stands for such cases as well. Counts of survivors are from the toxicity check (mostly the fifth day) where no day follows; animals may have died later. Schedule codes are those of the source, taken here to give the interval after Q, in days (D) or hours (H), and the number of doses after X. Some entries were tested several times; the results are listed from low to high. Some schedule codes hold Z or #, which are not explained here. For survival time, the PubChem record calls one and a half times the control and up active, and a quarter to a half above the control has no call in these data; cut-offs in other NCI protocols can differ. Some T/C values carry the count of animals alive at the toxicity check (mostly the fifth day); without a count, all were alive then.

Test system: L1210 leukemia ip in BDF1 mice, survival T/C
Assay: NCI In Vivo Anticancer Drug Screen. Data for tumor model L1210 Leukemia (intraperitoneal) in B6D2F1 (BDF1) mice
Details: T/C endpoint: mean survival time, higher T/C = longer survival
[1] = dose: 400.0 mg/kg/injection, schedule: Q01DX001 (ip), vehicle: saline
[2] = dose: 200.0 mg/kg/injection, schedule: Q04DX002 (ip), vehicle: Klucel (hydroxypropylcellulose) (HPC)
[3] = dose: 400.0 mg/kg/injection, schedule: Q04DX002 (ip), vehicle: Klucel (hydroxypropylcellulose) (HPC)
[4] = dose: 200.0 mg/kg/injection, schedule: Q01DX001 (ip), vehicle: saline
[5] = dose: 300.0 mg/kg/injection, schedule: Q01DX001 (ip), vehicle: saline

CCCCCCCCCCCCCCCCCC[N+](C)(C)c1nc(Cl)nc(Cl)n1
survivor count (dose: 150.0 mg/kg/injection, schedule: Q04DX003 (ip), vehicle: Klucel (hydroxypropylcellulose) (HPC)): 0 of 6 | survivor count (dose: 300.0 mg/kg/injection, schedule: Q04DX003 (ip), vehicle: Klucel (hydroxypropylcellulose) (HPC)): 0 of 6 | survivor count (dose: 400.0 mg/kg/injection, schedule: Q01DX001 (ip), vehicle: carboxymethylcellulose (CMC)): 1 of 4

CC(C)(CO)C(O)C(=O)NN (centres undefined)
survivor count [1]: 4 of 4

O=C(c1ccc2cc(Cl)c(Cl)cc2c1)C(Cl)Cl
survivor count [2]: 1 of 3 | survivor count [3]: 0 of 3

Oc1ccccc1/C=N/Nc1c2ccccc2nc2ccccc12
survivor count [4]: 2 of 4

CCN=C(NCC)Nc1ccc(NC(=O)c2ccc(C(=O)Nc3ccc(NC(=NCC)NCC)cc3)cc2)cc1
T/C (dose: 4.0 mg/kg/injection, schedule: Q01DX009 (ip), vehicle: carboxymethylcellulose (CMC)): 127 % of control | T/C (dose: 15.0 mg/kg/injection, schedule: Q01DX Z (ip), vehicle: water): 136 and 142 % of control [5 of 6 alive] | survivor count (dose: 30.0 mg/kg/injection, schedule: Q01DX Z (ip), vehicle: water): 6 of 6 | survivor count (dose: 32.0 mg/kg/injection, schedule: Q01DX009 (ip), vehicle: carboxymethylcellulose (CMC)): 6 of 6 | survivor count (dose: 60.0 mg/kg/injection, schedule: Q01DX Z (ip), vehicle: water): 0 of 6 | survivor count (dose: 112.0 mg/kg/injection, schedule: Q01DX009 (ip), vehicle: other): 6 of 6 | survivor count (dose: 120.0 mg/kg/injection, schedule: Q01DX Z (ip), vehicle: water): 0 of 6 | T/C (dose: 130.0 mg/kg/injection, schedule: Q01DX001 (ip), vehicle: carboxymethylcellulose (CMC)): 136 % of control | T/C (dose: 360.0 mg/kg/injection, schedule: Q01DX001 (ip), vehicle: other): 149 % of control

Cc1cc(-c2ccccc2)c2c(C#N)cn(-c3cccc(Cl)c3)c2n1
survivor count [4]: 3 of 3

CC[n+]1ccc(-c2ccc(NC(=O)c3ccc(C(=O)Nc4ccc(-c5cc[n+](CC)cc5)cc4)cc3)cc2)cc1
T/C (dose: 1.25 mg/kg/injection, schedule: Q01DX015 (ip), vehicle: carboxymethylcellulose (CMC)): 131 % of control | T/C (dose: 7.5 mg/kg/injection, schedule: Q01DX001 (ip), vehicle: carboxymethylcellulose (CMC)): 134 and 138 % of control | T/C (dose: 15.0 mg/kg/injection, schedule: Q01DX001 (ip), vehicle: carboxymethylcellulose (CMC)): 128 and 138 % of control | T/C (dose: 30.0 mg/kg/injection, schedule: Q01DX001 (ip), vehicle: carboxymethylcellulose (CMC)): 130 % of control | survivor count (dose: 45.0 mg/kg/injection, schedule: Q01DX015 (ip), vehicle: carboxymethylcellulose (CMC)): 6 of 6 | survivor count (dose: 75.0 mg/kg/injection, schedule: Q01DX015 (ip), vehicle: carboxymethylcellulose (CMC)): 6 of 6 | survivor count (dose: 112.0 mg/kg/injection, schedule: Q01DX015 (ip), vehicle: carboxymethylcellulose (CMC)): 3 of 6

C=C(Br)CNC(=O)Nc1c2ccccc2nc2ccccc12
survivor count (dose: 25.0 mg/kg/injection, schedule: Q01DX009 (ip), vehicle: Klucel (hydroxypropylcellulose) (HPC)): 6 of 6 | survivor count (dose: 50.0 mg/kg/injection, schedule: Q01DX009 (ip), vehicle: Klucel (hydroxypropylcellulose) (HPC)): 6 of 6 | survivor count (dose: 75.0 mg/kg/injection, schedule: Q01DX009 (ip), vehicle: Klucel (hydroxypropylcellulose) (HPC)): 6 of 6

CCC1CC2c3cc(OC)c(OC)cc3CCN2CC1(O)Cc1ccncc1 (centres undefined)
survivor count (dose: 400.0 mg/kg/injection, schedule: Q04DX003 (ip), vehicle: carboxymethylcellulose (CMC)): 2 of 6

NC(N)=NC(N)=Nc1ccc(N=C(N)N=C(N)N)cc1
survivor count (dose: 200.0 mg/kg/injection, schedule: Q01DX001 (ip), vehicle: other): 1 of 6 | survivor count (dose: 400.0 mg/kg/injection, schedule: Q01DX001 (ip), vehicle: other): 1 of 6

CC1C=CCC(C)(C)C1 (centres undefined)
survivor count (dose: 800.0 mg/kg/injection, schedule: Q01DX009 (ip), vehicle: carboxymethylcellulose (CMC)): 5 of 6 | survivor count (dose: 1000.0 mg/kg/injection, schedule: Q01DX009 (ip), vehicle: carboxymethylcellulose (CMC)): 5 of 6

CN1C2CC(=O)CC1C1CC2C1
survivor count (dose: 50.0 mg/kg/injection, schedule: Q04DX002 (ip), vehicle: Klucel (hydroxypropylcellulose) (HPC)): 2 of 3 | survivor count (dose: 100.0 mg/kg/injection, schedule: Q04DX002 (ip), vehicle: Klucel (hydroxypropylcellulose) (HPC)): 0 of 3 | survivor count [2]: 0 of 3 | survivor count [3]: 0 of 3

CCOP(=O)(OCC)Oc1cc(C)c(N(C)C)c(C)c1
survivor count [5]: 0 of 6

COc1cc([N+](=O)[O-])ccc1NC(=O)C(Br)C(Br)C(=O)O (centres undefined)
survivor count (dose: 200.0 mg/kg/injection, schedule: Q01DX009 (ip), vehicle: other): 5 of 6 | survivor count (dose: 400.0 mg/kg/injection, schedule: Q01DX009 (ip), vehicle: other): 1 of 6

ClCC1(CCl)OCCO1
survivor count (dose: 300.0 mg/kg/injection, schedule: Q01DX001 (ip), vehicle: carboxymethylcellulose (CMC)): 0 of 6

CCOC(=O)c1cnc2c(OC)cccc2c1Cl
survivor count (dose: 400.0 mg/kg/injection, schedule: Q01DX009 (ip), vehicle: saline): 4 of 6

CC(C)(C)c1cc(/C=N/n2c(-c3ccccc3)nc3ccccc3c2=O)cc(C(C)(C)C)c1O
survivor count [2]: 3 of 3 | survivor count (dose: 400.0 mg/kg/injection, schedule: Q01DX009 (ip), vehicle: Klucel (hydroxypropylcellulose) (HPC)): 3 of 3 and 6 of 6

CCCCC[CH2][Sn]([I])([CH2]C)[CH2]C
survivor count (dose: 6.25 mg/kg/injection, schedule: Q01DX009 (ip), vehicle: saline): 1 of 6 | survivor count (dose: 100.0 mg/kg/injection, schedule: Q04DX002 (ip), vehicle: saline with Tween-80): 0 of 3 | survivor count (dose: 200.0 mg/kg/injection, schedule: Q04DX002 (ip), vehicle: saline with Tween-80): 0 of 3 | survivor count (dose: 400.0 mg/kg/injection, schedule: Q04DX002 (ip), vehicle: saline with Tween-80): 0 of 3

C=CCn1c(=S)[nH]c2ccccc2c1=O
survivor count (dose: 100.0 mg/kg/injection, schedule: Q01DX009 (ip), vehicle: saline with Tween-80): 6 of 6

CCCCC(=O)N/N=C\c1ccc(-c2ccccc2)cc1
survivor count [1]: 2 of 4

CCOC(=O)c1ccc(Cl)cc1
survivor count (dose: 200.0 mg/kg/injection, schedule: Q01DX009 (ip), vehicle: saline with Tween-80): 6 of 6 | survivor count (dose: 400.0 mg/kg/injection, schedule: Q01DX009 (ip), vehicle: saline with Tween-80): 3 of 6

CC1(C)N=C(N)N=C(N)N1c1ccc(Cl)c(Cl)c1
T/C (dose: 5.0 mg/kg/injection, schedule: Q01DX009 (ip), vehicle: saline): 140 % of control | T/C (dose: 18.0 mg/kg/injection, schedule: Q01DX009 (ip), vehicle: saline): 126 % of control | survivor count (dose: 75.0 mg/kg/injection, schedule: Q01DX001 (ip), vehicle: saline): 2 of 6 | survivor count (dose: 150.0 mg/kg/injection, schedule: Q01DX001 (ip), vehicle: saline): 0 of 6 | survivor count [5]: 0 of 6

CCCC[N+](C)(C)CCCOC(=O)C1C2CC3OC(=O)C1C3C2 (centres undefined)
survivor count (dose: 25.0 mg/kg/injection, schedule: Q04DX003 (ip), vehicle: saline with Tween-80): 3 of 3 | survivor count (dose: 100.0 mg/kg/injection, schedule: Q04DX003 (ip), vehicle: saline with Tween-80): 1 of 3 | survivor count (dose: 200.0 mg/kg/injection, schedule: Q04DX003 (ip), vehicle: saline with Tween-80): 0 of 3 | survivor count (dose: 400.0 mg/kg/injection, schedule: Q04DX003 (ip), vehicle: saline with Tween-80): 0 of 3

CC(=O)OCC1OC(OC(C)C)[CH]([Hg][S]Cc2ccccc2)C(OC(C)=O)C1OC(C)=O (centres undefined)
survivor count (dose: 16.0 mg/kg/injection, schedule: Q01DX015 (ip), vehicle: carboxymethylcellulose (CMC)): 4 of 6

OCCCCc1ccccc1
survivor count (dose: 400.0 mg/kg/injection, schedule: Q01DX009 (ip), vehicle: saline sonified): 4 of 6

CNC1CCCc2ccccc2C1O (centres undefined)
survivor count [4]: 2 of 4 | survivor count [1]: 0 of 4
